This is an account of results in publication PMC3022811.

Protein sequences, listed by entry. Tags and fused reporters are not part of them.
UniProt O60583: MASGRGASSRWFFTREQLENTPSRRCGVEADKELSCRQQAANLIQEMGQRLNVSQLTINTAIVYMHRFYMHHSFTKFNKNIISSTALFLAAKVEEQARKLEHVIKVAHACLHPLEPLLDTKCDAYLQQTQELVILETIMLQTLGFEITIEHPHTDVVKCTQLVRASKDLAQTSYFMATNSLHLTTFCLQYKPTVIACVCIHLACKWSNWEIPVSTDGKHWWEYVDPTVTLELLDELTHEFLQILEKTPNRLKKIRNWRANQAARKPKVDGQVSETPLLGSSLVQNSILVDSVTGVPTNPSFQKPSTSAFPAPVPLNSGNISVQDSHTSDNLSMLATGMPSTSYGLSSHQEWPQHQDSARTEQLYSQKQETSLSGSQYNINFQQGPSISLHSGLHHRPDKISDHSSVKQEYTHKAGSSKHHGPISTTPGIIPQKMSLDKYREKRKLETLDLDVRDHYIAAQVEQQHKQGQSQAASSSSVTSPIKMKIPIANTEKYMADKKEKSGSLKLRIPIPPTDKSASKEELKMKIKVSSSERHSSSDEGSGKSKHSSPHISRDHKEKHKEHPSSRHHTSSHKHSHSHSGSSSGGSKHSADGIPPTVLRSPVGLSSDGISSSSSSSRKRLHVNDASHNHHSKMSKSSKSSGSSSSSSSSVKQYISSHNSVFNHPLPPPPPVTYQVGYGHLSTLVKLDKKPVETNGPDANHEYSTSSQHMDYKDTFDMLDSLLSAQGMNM
UniProt P78527: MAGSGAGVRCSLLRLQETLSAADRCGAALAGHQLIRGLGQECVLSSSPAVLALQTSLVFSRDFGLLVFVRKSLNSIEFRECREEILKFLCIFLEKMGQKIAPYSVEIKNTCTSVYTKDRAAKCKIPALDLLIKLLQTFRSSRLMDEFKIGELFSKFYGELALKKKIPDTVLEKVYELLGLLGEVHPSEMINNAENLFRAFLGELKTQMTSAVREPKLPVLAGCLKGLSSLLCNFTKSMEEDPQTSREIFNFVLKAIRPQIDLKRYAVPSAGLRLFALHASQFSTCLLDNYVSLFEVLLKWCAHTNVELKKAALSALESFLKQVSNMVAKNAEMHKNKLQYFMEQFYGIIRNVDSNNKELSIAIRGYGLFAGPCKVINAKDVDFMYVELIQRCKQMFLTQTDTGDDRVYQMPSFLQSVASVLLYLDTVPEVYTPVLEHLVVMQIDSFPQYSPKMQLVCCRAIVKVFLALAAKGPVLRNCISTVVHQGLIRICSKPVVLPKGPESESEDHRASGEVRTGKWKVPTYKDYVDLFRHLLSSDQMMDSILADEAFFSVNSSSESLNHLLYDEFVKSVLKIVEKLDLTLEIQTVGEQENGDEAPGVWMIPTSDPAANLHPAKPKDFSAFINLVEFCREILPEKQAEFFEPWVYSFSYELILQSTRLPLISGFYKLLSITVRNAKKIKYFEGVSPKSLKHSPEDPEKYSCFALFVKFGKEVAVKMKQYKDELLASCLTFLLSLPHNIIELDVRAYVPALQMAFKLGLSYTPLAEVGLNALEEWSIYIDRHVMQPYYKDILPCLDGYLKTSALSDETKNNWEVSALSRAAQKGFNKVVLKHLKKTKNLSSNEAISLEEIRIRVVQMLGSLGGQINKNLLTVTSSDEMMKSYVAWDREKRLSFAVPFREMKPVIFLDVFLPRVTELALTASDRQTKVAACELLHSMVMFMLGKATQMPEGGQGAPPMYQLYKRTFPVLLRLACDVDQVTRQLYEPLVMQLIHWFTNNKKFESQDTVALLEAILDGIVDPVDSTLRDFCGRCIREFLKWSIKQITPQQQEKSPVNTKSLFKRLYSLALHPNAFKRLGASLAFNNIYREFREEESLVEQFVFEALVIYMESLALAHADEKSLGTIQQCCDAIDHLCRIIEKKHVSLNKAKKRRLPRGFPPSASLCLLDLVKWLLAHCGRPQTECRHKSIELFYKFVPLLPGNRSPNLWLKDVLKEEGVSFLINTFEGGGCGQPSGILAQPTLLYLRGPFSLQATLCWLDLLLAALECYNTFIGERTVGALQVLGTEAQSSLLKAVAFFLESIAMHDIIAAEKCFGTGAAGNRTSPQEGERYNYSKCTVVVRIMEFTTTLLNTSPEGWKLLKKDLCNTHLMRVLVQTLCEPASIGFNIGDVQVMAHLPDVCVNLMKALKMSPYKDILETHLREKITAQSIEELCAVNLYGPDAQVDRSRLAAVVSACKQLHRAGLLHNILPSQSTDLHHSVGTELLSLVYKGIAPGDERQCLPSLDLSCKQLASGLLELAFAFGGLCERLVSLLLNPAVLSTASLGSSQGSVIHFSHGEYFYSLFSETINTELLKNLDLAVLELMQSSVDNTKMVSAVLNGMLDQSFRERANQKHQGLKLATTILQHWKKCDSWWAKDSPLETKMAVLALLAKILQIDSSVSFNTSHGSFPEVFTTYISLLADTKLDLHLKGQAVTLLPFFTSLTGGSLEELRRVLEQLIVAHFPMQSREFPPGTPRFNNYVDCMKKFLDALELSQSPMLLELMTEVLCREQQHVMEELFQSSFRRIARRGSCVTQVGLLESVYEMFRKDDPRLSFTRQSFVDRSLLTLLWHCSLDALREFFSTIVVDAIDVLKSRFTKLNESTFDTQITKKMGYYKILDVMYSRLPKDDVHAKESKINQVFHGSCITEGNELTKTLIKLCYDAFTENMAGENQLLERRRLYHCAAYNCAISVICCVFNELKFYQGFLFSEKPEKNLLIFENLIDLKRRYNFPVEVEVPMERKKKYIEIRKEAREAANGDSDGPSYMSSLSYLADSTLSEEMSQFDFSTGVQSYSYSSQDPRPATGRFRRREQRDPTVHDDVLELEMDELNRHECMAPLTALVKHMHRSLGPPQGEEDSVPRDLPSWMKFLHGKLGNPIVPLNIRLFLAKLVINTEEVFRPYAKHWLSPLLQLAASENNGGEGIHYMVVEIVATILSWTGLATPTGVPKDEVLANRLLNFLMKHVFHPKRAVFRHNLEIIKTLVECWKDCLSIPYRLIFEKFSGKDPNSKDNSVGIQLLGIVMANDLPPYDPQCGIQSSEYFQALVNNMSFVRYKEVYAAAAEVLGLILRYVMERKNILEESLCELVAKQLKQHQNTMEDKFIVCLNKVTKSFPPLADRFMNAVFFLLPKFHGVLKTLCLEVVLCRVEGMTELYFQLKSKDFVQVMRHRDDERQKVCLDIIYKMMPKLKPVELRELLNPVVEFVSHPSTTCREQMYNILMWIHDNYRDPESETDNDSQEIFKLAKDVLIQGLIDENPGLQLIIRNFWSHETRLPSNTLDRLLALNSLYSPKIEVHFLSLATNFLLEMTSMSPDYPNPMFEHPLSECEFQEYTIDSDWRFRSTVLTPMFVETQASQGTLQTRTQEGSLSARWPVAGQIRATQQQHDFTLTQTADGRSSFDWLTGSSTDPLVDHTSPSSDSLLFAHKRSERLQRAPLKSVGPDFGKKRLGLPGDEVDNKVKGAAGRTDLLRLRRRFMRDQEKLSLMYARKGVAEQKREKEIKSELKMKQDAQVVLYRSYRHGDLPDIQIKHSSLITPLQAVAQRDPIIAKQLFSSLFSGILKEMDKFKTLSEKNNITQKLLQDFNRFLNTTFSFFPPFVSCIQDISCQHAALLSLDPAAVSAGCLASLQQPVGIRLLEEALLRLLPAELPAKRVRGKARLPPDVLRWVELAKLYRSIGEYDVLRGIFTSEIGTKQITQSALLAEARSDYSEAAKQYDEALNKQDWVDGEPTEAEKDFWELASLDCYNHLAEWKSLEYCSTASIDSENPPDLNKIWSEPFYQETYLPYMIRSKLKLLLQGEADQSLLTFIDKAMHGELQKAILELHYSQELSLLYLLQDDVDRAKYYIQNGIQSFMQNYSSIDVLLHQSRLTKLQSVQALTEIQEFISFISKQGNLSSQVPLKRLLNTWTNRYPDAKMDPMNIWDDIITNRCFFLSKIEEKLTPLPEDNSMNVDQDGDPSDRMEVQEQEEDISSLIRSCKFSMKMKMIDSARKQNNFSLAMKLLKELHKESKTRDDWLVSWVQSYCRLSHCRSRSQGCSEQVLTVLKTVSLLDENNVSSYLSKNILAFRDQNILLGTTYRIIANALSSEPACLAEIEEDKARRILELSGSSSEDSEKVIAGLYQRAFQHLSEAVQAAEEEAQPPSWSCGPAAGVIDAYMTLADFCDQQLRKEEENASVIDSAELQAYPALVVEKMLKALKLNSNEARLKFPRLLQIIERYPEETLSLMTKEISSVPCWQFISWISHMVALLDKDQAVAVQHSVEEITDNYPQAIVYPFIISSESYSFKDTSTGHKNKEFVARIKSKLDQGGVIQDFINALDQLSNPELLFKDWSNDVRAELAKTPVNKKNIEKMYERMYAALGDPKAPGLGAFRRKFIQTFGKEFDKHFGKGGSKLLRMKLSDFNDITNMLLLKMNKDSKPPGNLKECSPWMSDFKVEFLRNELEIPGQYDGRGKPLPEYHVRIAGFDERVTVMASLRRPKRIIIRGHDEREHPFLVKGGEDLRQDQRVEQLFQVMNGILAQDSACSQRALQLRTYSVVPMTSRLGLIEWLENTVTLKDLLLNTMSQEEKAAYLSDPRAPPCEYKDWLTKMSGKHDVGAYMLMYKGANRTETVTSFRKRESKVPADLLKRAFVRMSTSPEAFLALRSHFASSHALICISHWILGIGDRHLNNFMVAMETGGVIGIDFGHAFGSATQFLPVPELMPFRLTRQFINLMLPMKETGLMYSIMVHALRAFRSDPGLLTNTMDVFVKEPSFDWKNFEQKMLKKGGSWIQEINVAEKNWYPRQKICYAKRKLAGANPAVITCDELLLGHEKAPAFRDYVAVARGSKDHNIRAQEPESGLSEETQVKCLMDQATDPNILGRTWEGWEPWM

Assay [1] has as its target cyclin T2 (human (endogenous in HeLa)) (UniProt O60583). The assay is described as follows: co-IP; HeLa cell extracts (50 mM Tris-HCl pH 7.5, 150 mM NaCl, 1% Nonidet P40, 0.5% sodium deoxycholate); 2 ug anti-DNA-PKcs or anti-cyclin T antibody, protein A/G-agarose, 4°C; washes with 500 mM NaCl buffer; immunoblotting; IgG as blank control. For orientation: In western blotting, separated proteins are transferred to a membrane and probed.

The target of assay [2] is DNA-dependent protein kinase catalytic subunit (human (endogenous in HeLa)) (UniProt P78527). The description is as above.

These are yes or no findings as the source states them, for the method shown. Binding seen in cells or lysates may run through a third protein. Some entries that bind do so weakly or less than the wild type.

In the case of “DNA-dependent protein kinase catalytic subunit (from UniProt P78527 1-4128)”, the binding result in assay [1] was “binds”.
For the substance cyclin T2 (from UniProt O60583 1-730), the binding result in assay [2] is “binds”.
